Data as given in PubChem BioAssay AID1259327 (Drosophila RNAi Screening Center, 2017).
Purpose: 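Knock-downs altering cellular ATP with no metal added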. Cells: Drosophila S2R+ cells. Reagents: long dsRNA against Drosophila genes. Duration: 5 days (water added on day 4, read one day later). Challenge: water added as vehicle, no metal, one day before read-out. Measurement: 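Luciferase ATP signal per well, normalised to plate mean, duplicate average converted to z-score across plates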. Scale: ATP z-score: higher = more total ATP than typical wells; ATP luminescence: higher = more total ATP. Hit rule: 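a hit is any knock-down whose absolute ATP z-score is greater than 1.5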. Meaning of the calls: active = hit: ATP up or down; inactive = no clear ATP change.
The whole screen tested about 3,100 reagents; below is an unselected part. 378 of them (12%) were called active. 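Hits include both directions; z-score sign shows ATP rise or fall; raw luminescence values are not plate-normalised.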 No sequences are given here. The record does not give: the amount of reagent.

Shawl [DRSC02209]
- ATP z-score, duplicate mean: 1.38
- ATP luminescence, replicate 1 (RLU): 8.62e5
- ATP luminescence, replicate 2 (RLU): 8.82e5
- activity call: inactive

Shawl [DRSC02748]
- ATP z-score, duplicate mean: -0.068
- ATP luminescence, replicate 1 (RLU): 8.90e5
- ATP luminescence, replicate 2 (RLU): 8.84e5
- activity call: inactive

Shawl [DRSC24307]
- ATP z-score, duplicate mean: 0.83
- ATP luminescence, replicate 1 (RLU): 1.08e6
- ATP luminescence, replicate 2 (RLU): 7.77e5
- activity call: inactive

alpha-Catr [DRSC28046]
- ATP z-score, duplicate mean: 0.0693
- ATP luminescence, replicate 1 (RLU): 8.25e5
- ATP luminescence, replicate 2 (RLU): 1.03e6
- activity call: inactive

CG7458 [DRSC11829]
- ATP z-score, duplicate mean: 0.0109
- ATP luminescence, replicate 1 (RLU): 7.24e5
- ATP luminescence, replicate 2 (RLU): 7.65e5
- activity call: inactive

CG7458 [DRSC21340]
- ATP z-score, duplicate mean: -0.919
- ATP luminescence, replicate 1 (RLU): 5.56e5
- ATP luminescence, replicate 2 (RLU): 4.46e5
- activity call: inactive

hoe2 [DRSC00459]
- ATP z-score, duplicate mean: 0.198
- ATP luminescence, replicate 1 (RLU): 7.35e5
- ATP luminescence, replicate 2 (RLU): 7.59e5
- activity call: inactive

hoe2 [DRSC39471]
- ATP z-score, duplicate mean: 1.13
- ATP luminescence, replicate 1 (RLU): 4.79e5
- ATP luminescence, replicate 2 (RLU): 5.74e5
- activity call: inactive

sbm [DRSC20185]
- ATP z-score, duplicate mean: -1.61
- ATP luminescence, replicate 1 (RLU): 4.86e5
- ATP luminescence, replicate 2 (RLU): 7.43e5
- activity call: active

CG15890 [DRSC19737]
- ATP z-score, duplicate mean: -0.298
- ATP luminescence, replicate 1 (RLU): 8.15e5
- ATP luminescence, replicate 2 (RLU): 7.19e5
- activity call: inactive

CG33116 [DRSC02045]
- ATP z-score, duplicate mean: 0.804
- ATP luminescence, replicate 1 (RLU): 6.09e5
- ATP luminescence, replicate 2 (RLU): 4.56e5
- activity call: inactive

para [DRSC19141]
- ATP z-score, duplicate mean: 1.37
- ATP luminescence, replicate 1 (RLU): 6.77e5
- ATP luminescence, replicate 2 (RLU): 8.10e5
- activity call: inactive

para [DRSC20360]
- ATP z-score, duplicate mean: -0.28
- ATP luminescence, replicate 1 (RLU): 5.35e5
- ATP luminescence, replicate 2 (RLU): 6.58e5
- activity call: inactive

CG6790 [DRSC16117]
- ATP z-score, duplicate mean: -0.063
- ATP luminescence, replicate 1 (RLU): 7.28e5
- ATP luminescence, replicate 2 (RLU): 6.71e5
- activity call: inactive

smo [DRSC00837]
- ATP z-score, duplicate mean: -0.347
- ATP luminescence, replicate 1 (RLU): 4.01e5
- ATP luminescence, replicate 2 (RLU): 5.12e5
- activity call: inactive

smo [DRSC28492]
- ATP z-score, duplicate mean: -0.232
- ATP luminescence, replicate 1 (RLU): 8.26e5
- ATP luminescence, replicate 2 (RLU): 7.67e5
- activity call: inactive
